By UniProt entry, the sequences of proteins in these tests, tags left out. Residues count along the entry.
UniProt P30082, 27-485: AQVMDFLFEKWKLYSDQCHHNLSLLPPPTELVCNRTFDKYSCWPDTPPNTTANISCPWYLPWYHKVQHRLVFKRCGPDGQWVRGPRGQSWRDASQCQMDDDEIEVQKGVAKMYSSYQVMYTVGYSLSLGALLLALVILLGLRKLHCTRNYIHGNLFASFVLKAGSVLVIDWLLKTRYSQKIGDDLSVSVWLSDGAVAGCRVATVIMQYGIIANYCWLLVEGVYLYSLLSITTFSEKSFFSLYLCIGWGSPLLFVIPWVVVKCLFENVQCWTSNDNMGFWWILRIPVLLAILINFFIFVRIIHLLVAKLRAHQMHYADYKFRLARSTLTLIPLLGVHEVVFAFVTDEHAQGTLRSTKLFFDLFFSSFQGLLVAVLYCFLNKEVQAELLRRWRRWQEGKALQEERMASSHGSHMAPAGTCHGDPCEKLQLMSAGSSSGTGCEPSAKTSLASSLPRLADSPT

At least one peptide structure holds a part that was inferred or is arguable (an end, a ring closure or a residue). Residues, ends and D or L forms follow the SMILES beside them. No end group written: not given here.
These compounds were tested against T1, glucagon receptors (Rattus norvegicus, UniProt P30082) (assay: Membrane receptor binding assay: competition with 125I-labeled glucagon on liver plasma membranes). Details: relative binding affinity compared to glucagon standard, 125I-glucagon 1.6 nM, analogs measured as amides.
T1 construct: Liver plasma membranes were prepared from male Sprague-Dawley rats; from tissue; host or cells: rat liver plasma membranes (male Sprague-Dawley rats, Charles River Breeding Laboratories)
In the case of “SQGTFTSEYAKYLDARRAQEFVQWLMNT-NH2 [Analog 5, des-His^1 Glu^9 Ala^11 Ala^16 Glu^21]”, the “% Binding Activity” value is reported as 39%. With `CCCC[C@H](NC(=O)[C@H](CO)NC(=O)[C@@H](NC(=O)[C@H](Cc1ccccc1)NC(=O)[C@@H](NC(=O)CNC(=O)[C@H](CCC(N)=O)NC(=O)[C@@H](N)CO)[C@@H](C)O)[C@@H](C)O)C(=O)N[C@@H](Cc1ccc(O)cc1)C(=O)N[C@@H](C)C(=O)N[C@@H](CCCCN)C(=O)N[C@@H](Cc1ccc(O)cc1)C(=O)N[C@@H](CC(C)C)C(=O)N[C@@H](CC(=O)O)C(=O)N[C@@H](C)C(=O)N[C@@H](CCCNC(=N)N)C(=O)N[C@@H](CCCNC(=N)N)C(=O)N[C@@H](C)C(=O)N[C@@H](CCC(N)=O)C(=O)N[C@@H](CC(=O)O)C(=O)N[C@@H](Cc1ccccc1)C(=O)N[C@H](C(=O)N[C@@H](CCC(N)=O)C(=O)N[C@@H](Cc1c[nH]c2ccccc12)C(=O)N[C@@H](CC(C)C)C(=O)N[C@@H](CCSC)C(=O)N[C@@H](CC(N)=O)C(=O)N[C@H](C(N)=O)[C@@H](C)O)C(C)C` [Analog 3, des-His^1 Nle^9 Ala^11 Ala^16] (HELM PEPTIDE1{S.Q.G.T.F.T.S.[Nle].Y.A.K.Y.L.D.A.R.R.A.Q.D.F.V.Q.W.L.M.N.T.[am]}$$$$V2.0) the “% Binding Activity” value was 100%. `CCCC[C@H](NC(=O)[C@H](CO)NC(=O)[C@@H](NC(=O)[C@H](Cc1ccccc1)NC(=O)[C@@H](NC(=O)CNC(=O)[C@H](CCC(N)=O)NC(=O)[C@@H](N)CO)[C@@H](C)O)[C@@H](C)O)C(=O)N[C@@H](Cc1ccc(O)cc1)C(=O)N[C@@H](C)C(=O)N[C@@H](CCCCN)C(=O)N[C@@H](Cc1ccc(O)cc1)C(=O)N[C@@H](CC(C)C)C(=O)N[C@@H](CC(=O)O)C(=O)N[C@@H](CCC(N)=O)C(=O)N[C@@H](CCCNC(=N)N)C(=O)N[C@@H](CCCNC(=N)N)C(=O)N[C@@H](C)C(=O)N[C@@H](CCC(N)=O)C(=O)N[C@@H](CC(=O)O)C(=O)N[C@@H](Cc1ccccc1)C(=O)N[C@H](C(=O)N[C@@H](CCC(N)=O)C(=O)N[C@@H](Cc1c[nH]c2ccccc12)C(=O)N[C@@H](CC(C)C)C(=O)N[C@@H](CCSC)C(=O)N[C@@H](CC(N)=O)C(=O)N[C@H](C(N)=O)[C@@H](C)O)C(C)C` [Analog 4, des-His^1 Nle^9 Ala^11 Gln^16] (HELM PEPTIDE1{S.Q.G.T.F.T.S.[Nle].Y.A.K.Y.L.D.Q.R.R.A.Q.D.F.V.Q.W.L.M.N.T.[am]}$$$$V2.0) was tested, and the “% Binding Activity” value was 56.3%. With `CCCC[C@H](NC(=O)[C@H](CO)NC(=O)[C@@H](NC(=O)[C@H](Cc1ccccc1)NC(=O)[C@@H](NC(=O)CNC(=O)[C@H](CCC(N)=O)NC(=O)[C@H](CO)NC(=O)[C@@H](N)Cc1c[nH]cn1)[C@@H](C)O)[C@@H](C)O)C(=O)N[C@@H](Cc1ccc(O)cc1)C(=O)N[C@@H](C)C(=O)N[C@@H](CCCCN)C(=O)N[C@@H](Cc1ccc(O)cc1)C(=O)N[C@@H](CC(C)C)C(=O)N[C@@H](CC(=O)O)C(=O)N[C@@H](CCC(N)=O)C(=O)N[C@@H](CCCNC(=N)N)C(=O)N[C@@H](CCCNC(=N)N)C(=O)N[C@@H](C)C(=O)N[C@@H](CCC(N)=O)C(=O)N[C@@H](CC(=O)O)C(=O)N[C@@H](Cc1ccccc1)C(=O)N[C@H](C(=O)N[C@@H](CCC(N)=O)C(=O)N[C@@H](Cc1c[nH]c2ccccc12)C(=O)N[C@@H](CC(C)C)C(=O)N[C@@H](CCSC)C(=O)N[C@@H](CC(N)=O)C(=O)N[C@H](C(N)=O)[C@@H](C)O)C(C)C` [Analog 1, Nle^9 Ala^11 Gln^16] (HELM PEPTIDE1{H.S.Q.G.T.F.T.S.[Nle].Y.A.K.Y.L.D.Q.R.R.A.Q.D.F.V.Q.W.L.M.N.T.[am]}$$$$V2.0) the “% Binding Activity” value was 46.8%. In the case of `CCCC[C@H](NC(=O)[C@H](CO)NC(=O)[C@@H](NC(=O)[C@H](Cc1ccccc1)NC(=O)[C@@H](NC(=O)CNC(=O)[C@H](CCC(N)=O)NC(=O)[C@@H](N)CO)[C@@H](C)O)[C@@H](C)O)C(=O)N[C@@H](Cc1ccc(O)cc1)C(=O)N[C@@H](CO)C(=O)N[C@@H](CCCCN)C(=O)N[C@@H](Cc1ccc(O)cc1)C(=O)N[C@@H](CC(C)C)C(=O)N[C@@H](CC(=O)O)C(=O)N[C@@H](C)C(=O)N[C@@H](CCCNC(=N)N)C(=O)N[C@@H](CCCNC(=N)N)C(=O)N[C@@H](C)C(=O)N[C@@H](CCC(N)=O)C(=O)N[C@@H](CC(=O)O)C(=O)N[C@@H](Cc1ccccc1)C(=O)N[C@H](C(=O)N[C@@H](CCC(N)=O)C(=O)N[C@@H](Cc1c[nH]c2ccccc12)C(=O)N[C@@H](CC(C)C)C(=O)N[C@@H](CCSC)C(=O)N[C@@H](CC(N)=O)C(=O)N[C@H](C(N)=O)[C@@H](C)O)C(C)C` [Analog 2, des-His^1 Nle^9 Ala^16] (HELM PEPTIDE1{S.Q.G.T.F.T.S.[Nle].Y.S.K.Y.L.D.A.R.R.A.Q.D.F.V.Q.W.L.M.N.T.[am]}$$$$V2.0), the “% Binding Activity” value is reported as 100%.
